From article PMC3543444 come the findings set out here.

Amino acid sequences for entries named in this document (tags omitted).
UniProt P50207: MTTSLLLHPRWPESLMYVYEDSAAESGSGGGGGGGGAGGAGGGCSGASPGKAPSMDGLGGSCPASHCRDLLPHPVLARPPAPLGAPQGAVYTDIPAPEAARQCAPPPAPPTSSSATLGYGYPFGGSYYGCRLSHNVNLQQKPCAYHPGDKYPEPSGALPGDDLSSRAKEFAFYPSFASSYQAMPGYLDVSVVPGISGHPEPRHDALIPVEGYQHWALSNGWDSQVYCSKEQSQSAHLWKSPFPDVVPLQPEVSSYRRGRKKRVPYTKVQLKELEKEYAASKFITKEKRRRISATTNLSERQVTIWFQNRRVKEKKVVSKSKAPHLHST
UniProt P09631: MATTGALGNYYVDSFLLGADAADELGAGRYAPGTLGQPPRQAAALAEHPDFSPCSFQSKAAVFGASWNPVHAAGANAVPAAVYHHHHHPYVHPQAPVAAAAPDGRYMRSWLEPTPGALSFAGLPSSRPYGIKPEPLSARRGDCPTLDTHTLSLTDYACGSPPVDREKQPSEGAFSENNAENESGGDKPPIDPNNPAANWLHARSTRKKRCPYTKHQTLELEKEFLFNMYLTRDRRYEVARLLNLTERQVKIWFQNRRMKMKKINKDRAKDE
UniProt Q16531: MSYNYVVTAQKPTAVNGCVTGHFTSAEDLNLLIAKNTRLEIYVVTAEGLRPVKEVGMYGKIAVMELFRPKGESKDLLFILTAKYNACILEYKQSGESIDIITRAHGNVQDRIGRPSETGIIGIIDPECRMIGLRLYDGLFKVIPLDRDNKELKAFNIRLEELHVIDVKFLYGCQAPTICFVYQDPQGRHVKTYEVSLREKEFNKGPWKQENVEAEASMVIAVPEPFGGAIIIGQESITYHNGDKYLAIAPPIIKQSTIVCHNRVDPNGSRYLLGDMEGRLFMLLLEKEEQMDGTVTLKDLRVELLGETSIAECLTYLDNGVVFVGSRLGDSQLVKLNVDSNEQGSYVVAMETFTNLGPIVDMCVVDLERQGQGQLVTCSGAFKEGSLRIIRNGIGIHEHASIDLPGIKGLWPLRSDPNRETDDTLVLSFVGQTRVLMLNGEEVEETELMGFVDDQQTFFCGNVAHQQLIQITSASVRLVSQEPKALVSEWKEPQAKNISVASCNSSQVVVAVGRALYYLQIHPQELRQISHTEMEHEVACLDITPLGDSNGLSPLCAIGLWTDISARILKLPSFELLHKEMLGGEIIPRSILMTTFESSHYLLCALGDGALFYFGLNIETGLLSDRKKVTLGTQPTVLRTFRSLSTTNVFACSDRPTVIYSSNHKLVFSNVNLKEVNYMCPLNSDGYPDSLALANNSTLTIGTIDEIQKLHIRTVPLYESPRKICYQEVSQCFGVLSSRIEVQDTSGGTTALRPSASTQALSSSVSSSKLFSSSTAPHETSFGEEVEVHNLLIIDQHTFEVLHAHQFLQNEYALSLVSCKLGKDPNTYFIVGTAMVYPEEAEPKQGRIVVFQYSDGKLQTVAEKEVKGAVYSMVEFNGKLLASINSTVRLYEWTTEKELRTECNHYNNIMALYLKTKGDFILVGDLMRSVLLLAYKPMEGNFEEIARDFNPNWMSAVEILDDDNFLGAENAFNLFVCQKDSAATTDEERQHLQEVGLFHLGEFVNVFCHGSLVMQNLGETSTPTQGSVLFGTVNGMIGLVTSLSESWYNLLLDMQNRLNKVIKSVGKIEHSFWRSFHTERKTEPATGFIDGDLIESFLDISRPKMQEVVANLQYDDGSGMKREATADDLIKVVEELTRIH
UniProt Q13619: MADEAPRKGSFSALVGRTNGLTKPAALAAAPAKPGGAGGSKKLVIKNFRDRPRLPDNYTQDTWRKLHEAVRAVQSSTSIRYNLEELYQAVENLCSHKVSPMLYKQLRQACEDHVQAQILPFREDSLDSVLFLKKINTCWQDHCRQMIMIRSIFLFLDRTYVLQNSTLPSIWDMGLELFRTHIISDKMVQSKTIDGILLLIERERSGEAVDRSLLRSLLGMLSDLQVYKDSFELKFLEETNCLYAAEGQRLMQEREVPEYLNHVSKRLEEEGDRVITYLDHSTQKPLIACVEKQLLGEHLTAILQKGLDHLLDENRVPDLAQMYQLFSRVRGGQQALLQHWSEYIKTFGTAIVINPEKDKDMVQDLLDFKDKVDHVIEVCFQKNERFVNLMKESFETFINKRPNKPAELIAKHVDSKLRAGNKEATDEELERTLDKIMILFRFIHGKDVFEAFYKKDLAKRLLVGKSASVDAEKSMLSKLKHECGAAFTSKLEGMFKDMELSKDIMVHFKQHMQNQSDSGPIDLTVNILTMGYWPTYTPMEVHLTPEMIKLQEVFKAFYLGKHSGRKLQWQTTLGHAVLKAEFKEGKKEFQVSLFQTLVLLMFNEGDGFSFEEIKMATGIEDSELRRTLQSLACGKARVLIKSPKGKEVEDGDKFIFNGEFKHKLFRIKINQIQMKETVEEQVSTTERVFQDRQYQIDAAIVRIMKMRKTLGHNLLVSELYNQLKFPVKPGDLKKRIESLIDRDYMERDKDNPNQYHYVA

Test [1] addresses Flag-Hoxc13 (HEK-293) (UniProt P50207). Kind of test: co-IP; Flag-Hox derivatives transfected in HEK-293; extract in RIPA buffer (0.5% Triton X-100, 20 mM Hepes pH 8.0, 150 mM NaCl); immunoprecipitation with anti-Flag antibody; immunoblot with anti-Cul4a, anti-Ddb1 and anti-Roc1.
Test [2] has as its target Flag-Hoxa9 (HEK-293) (UniProt P09631). The test is described as above.

Results are given in words; binding and its absence hold for the method and conditions named. Binding seen in cells or lysates may run through a third protein. Some binding calls cover weakened binding; strength is not graded here.

For “endogenous Ddb1 (HEK-293) (from UniProt Q16531 1-1140)”, the binding result in test [1] is reported as “no binding”; in test [2], “binds”.
On the same counts, the results for “endogenous Cul4a (HEK-293) (from UniProt Q13619 1-759)” are “no binding” and “binds”.
